From patent US9770451B2, “Composition including ATM inhibitor for reducing cellular senescence and use of the composition” (Samsung Electronics Co., Ltd., priority 2014, dated 2017)
At least one structure is not confirmed: it was looked up by name or label, or the drawing left a doubt.

Experiments:
[1] = tested on: key ATM targets in human glioma cells; conditions: cited from earlier work
C57BL/6J mice [2] = assay: Wound healing assay (full-thickness punch-biopsy wounds); format: in vivo, mouse; conditions: DMSO wounds still showed remnants of scabs
Experimental: To further test whether ATMi can promote cutaneous wounding healing in young (3 months old) and old (19 months old) male mice (C57BL/6J mice), four full-thickness punch-biopsy wounds (8 mm in diameter) were created on the dorsal skin of mouse (5 mice/experimental group), drug at a concentration of 5 μM KU-60019 in 30% Pluronic gel (Pluronic F-127 Sigma, P2443-1 KG) 0.5 mL was applied to wounds every day, and then covered the wounds with Telfa sponges (Kendall Health Care, Mansfield, Mass., USA). All animal studies were reviewed and approved by the […] Animal Care and Use Committee of SKKU School of Medicine (SUSM). SUSM is an Association for Assessment and Accreditation of Laboratory Animal Care international accredited facility and abides by the Institute for Laboratory Animal Research guide. Wounds were photographed for 10 days. Immunohistochemistry analyses were performed on 5 μm paraffin embedded sections as described previously (Lin et. al., 2004. Developmental Biology 270, 474-486). Primary antibodies used for immunohistochemistry were mouse anti-α-smooth muscle actin (Sigma, F3777-2ML, 1:500), and mouse anti-PCNA (Santa Cruz Biotechnology, SC-56, 1:500). Secondary antibodies used for immunohistochemistry were EnVision™ Detection System (DAKO, K5007). […]

C57BL/6J mice [3] = assay: Immunohistochemistry and Masson-Trichrome staining of excisional wound sections; format: in vivo, mouse
human glioma cells = conditions: cited from earlier work

## C[C@@H]1CN(CC(=O)Nc2ccc3c(c2)Cc2cccc(-c4cc(=O)cc(N5CCOCC5)o4)c2S3)C[C@H](C)O1 [KU-60019, 2-((2S,6R)-2,6-dimethylmorpholino)-N-(5-(6-morpholino-4-oxo-4H-pyran-2-yl)-9H-thioxanthen-2-yl)acetamide]
[1]
  effectiveness relative to KU-55933 at blocking radiation-induced phosphorylation of key ATM targets: about 10 fold
C57BL/6J mice [2]; old mouse (19 months old), day 10
  wound healing status: near completion
C57BL/6J mice [2]; young mouse (3 months old), day 9
  wound healing status: near completion
C57BL/6J mice [3]; DMSO wounds: selective proliferation of the early granulation tissue
  PCNA staining (proliferation) of wound sections: proliferation in the supra basal area of epidermis
C57BL/6J mice [3]; young and old mice
  Masson's Trichrome staining: collagen deposition vs DMSO treated wounds: more dense and thicker collagen
C57BL/6J mice [3]; young and old mice, dense myoblast staining in DMSO treated wounds
  α-smooth muscle actin staining of wound sections: strong staining in epidermis
Human glioma cells
  radiosensitizer activity: highly effective radiosensitizer
